From ChEMBL document CHEMBL3988442, “University of Dundee, Small-Polar-MMV Screening Library” (2021).

Protein sequences, listed by entry. Tags and fused reporters are not part of them. Residues count along the entry.
UniProt P9WFT3, whole entry: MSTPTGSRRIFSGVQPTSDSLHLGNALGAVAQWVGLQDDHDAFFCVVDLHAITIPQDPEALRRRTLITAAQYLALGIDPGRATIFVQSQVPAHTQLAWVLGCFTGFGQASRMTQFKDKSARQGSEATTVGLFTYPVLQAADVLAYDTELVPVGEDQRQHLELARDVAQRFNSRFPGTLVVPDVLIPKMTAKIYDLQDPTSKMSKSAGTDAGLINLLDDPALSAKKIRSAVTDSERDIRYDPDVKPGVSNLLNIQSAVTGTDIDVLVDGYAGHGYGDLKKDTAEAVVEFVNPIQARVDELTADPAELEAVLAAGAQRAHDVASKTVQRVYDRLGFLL
UniProt P9WPC5, whole entry: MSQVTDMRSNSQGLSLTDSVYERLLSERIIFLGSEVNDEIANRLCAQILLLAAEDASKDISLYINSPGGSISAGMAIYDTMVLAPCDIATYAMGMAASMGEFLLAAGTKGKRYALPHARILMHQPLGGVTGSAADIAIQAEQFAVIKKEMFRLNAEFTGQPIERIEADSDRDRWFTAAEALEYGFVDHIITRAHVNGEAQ
UniProt P9WPC3, whole entry partner: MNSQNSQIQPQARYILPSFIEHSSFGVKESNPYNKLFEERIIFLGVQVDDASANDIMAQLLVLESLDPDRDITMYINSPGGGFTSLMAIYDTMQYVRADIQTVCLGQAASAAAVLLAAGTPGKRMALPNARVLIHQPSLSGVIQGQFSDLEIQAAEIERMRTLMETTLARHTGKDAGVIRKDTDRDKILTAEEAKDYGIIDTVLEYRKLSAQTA
UniProt I6X8D2, whole entry: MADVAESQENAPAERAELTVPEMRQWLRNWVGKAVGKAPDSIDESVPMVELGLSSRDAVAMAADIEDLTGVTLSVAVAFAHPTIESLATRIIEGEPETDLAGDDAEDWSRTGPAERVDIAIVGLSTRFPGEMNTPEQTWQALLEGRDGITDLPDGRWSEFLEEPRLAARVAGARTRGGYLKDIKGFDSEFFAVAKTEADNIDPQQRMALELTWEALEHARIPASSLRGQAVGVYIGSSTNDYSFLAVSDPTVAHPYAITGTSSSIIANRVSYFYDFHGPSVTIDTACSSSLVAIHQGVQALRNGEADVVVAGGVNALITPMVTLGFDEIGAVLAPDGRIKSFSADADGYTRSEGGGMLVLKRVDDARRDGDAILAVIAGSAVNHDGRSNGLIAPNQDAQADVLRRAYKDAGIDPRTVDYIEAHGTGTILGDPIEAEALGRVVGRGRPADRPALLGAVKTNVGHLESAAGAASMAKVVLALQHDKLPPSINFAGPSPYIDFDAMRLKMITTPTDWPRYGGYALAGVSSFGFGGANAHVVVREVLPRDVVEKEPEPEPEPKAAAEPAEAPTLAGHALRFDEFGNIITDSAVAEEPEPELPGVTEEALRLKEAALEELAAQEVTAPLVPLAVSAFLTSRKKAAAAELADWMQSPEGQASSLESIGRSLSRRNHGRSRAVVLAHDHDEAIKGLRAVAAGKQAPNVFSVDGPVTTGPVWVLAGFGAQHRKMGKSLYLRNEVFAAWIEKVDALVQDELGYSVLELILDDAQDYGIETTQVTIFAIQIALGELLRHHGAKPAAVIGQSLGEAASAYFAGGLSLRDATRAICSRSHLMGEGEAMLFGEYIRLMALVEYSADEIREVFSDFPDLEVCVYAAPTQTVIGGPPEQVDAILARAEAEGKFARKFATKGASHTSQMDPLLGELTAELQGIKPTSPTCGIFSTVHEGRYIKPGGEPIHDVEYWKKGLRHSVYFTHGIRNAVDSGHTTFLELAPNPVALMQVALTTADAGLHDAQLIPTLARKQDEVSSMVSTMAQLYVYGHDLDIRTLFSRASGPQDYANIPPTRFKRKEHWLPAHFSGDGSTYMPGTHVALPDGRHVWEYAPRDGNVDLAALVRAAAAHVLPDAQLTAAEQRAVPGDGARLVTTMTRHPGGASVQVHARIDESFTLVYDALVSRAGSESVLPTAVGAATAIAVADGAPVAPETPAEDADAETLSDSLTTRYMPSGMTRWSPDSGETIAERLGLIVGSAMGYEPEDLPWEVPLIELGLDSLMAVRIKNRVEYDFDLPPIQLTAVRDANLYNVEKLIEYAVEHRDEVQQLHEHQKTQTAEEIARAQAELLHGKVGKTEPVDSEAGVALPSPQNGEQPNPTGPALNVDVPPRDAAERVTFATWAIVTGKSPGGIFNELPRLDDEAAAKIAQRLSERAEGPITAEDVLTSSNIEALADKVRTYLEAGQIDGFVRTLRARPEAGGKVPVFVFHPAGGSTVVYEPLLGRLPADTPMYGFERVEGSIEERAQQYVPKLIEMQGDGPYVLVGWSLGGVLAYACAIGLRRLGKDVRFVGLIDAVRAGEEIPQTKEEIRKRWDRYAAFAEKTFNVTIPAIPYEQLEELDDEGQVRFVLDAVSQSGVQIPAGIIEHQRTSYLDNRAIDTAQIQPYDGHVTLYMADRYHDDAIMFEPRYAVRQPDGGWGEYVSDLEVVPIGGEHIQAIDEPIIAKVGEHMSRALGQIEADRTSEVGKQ
UniProt Q8IDJ8, 1-583: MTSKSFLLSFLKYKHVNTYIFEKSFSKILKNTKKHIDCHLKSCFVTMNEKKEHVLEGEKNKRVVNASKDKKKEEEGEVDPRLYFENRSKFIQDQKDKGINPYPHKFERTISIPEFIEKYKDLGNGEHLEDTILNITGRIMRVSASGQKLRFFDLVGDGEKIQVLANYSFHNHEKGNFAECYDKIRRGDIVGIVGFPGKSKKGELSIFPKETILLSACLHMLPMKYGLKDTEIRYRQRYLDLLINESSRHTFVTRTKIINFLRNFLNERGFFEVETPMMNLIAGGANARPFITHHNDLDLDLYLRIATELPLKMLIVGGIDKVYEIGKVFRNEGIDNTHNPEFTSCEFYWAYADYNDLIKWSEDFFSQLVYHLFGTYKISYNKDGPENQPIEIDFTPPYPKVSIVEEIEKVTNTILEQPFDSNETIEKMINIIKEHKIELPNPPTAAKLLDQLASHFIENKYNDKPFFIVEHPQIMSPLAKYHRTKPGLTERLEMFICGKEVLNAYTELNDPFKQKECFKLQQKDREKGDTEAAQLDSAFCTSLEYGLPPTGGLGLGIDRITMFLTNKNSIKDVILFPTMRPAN

MtTrpRS: 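Tryptophan-tRNA ligase, Mycobacterium tuberculosis (UniProt P9WFT3). Enzyme assay of tryptophanyl-tRNA synthetase; the read-out is not stated. Tested at 10 µM. Higher most likely means stronger inhibition; the record gives no direction and few retests gave an IC50. Size under these conditions: about 65,000 compounds, about 64 of them at 50% or above in at least one test.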
ClpP1P2: 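ClpP1P2, Mycobacterium tuberculosis (UniProt P9WPC5 and UniProt P9WPC3). Protease assay of ClpP1P2, read by the AMC dye that it sets free. Compounds at 50 µM. Higher reads as stronger inhibition, judged from the few compounds that gave an IC50. Most other retested compounds had strongly negative values. About 69,000 compounds were tested under these conditions; 0.015% (about 10) showed 50% or more at least once.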
Pks13 thioesterase: 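Enzyme assay of the thioesterase domain of polyketide synthase 13; the read-out is not stated. Target: Polyketide synthase Pks13, Mycobacterium tuberculosis (UniProt I6X8D2). Compounds at 30 µM. Higher reads as stronger inhibition (inferred from which compounds were picked for retests). Of about 67,000 compounds tested this way, about 300 (0.46%) reached 50% or more in at least one test.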
PfKRS1: 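Enzyme assay of the cytosolic lysyl-tRNA synthetase in 384-well plates, read by luminescence. Target: Lysine-tRNA ligase, Plasmodium falciparum 3D7 (UniProt Q8IDJ8). Concentration: 30 µM. Direction is inferred from only a few compounds that gave an IC50; most scored high, so higher reads as stronger inhibition. About 69,000 compounds were tested under these conditions; 0.071% (about 49) showed 50% or more at least once.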

Results are given as percent effect.
The controls that fix the scale are not given in the record; negative values are as filed.
The compounds are a random part of those screened.
A dash means the value is not listed here; it may have been measured.

| SMILES | MtTrpRS | ClpP1P2 | Pks13 thioesterase | PfKRS1 |
|---|---|---|---|---|
| `Nc1cc2c(nn1)CCN(C(=O)c1cccc3c1OCCO3)C2` | -0.07993% | 1.741% | 1.408% | 3.675% |
| `CCOc1ncccc1CNc1cc(COC)ncn1` | 3.715% | -5.647% | -18.46% | 0.9939% |
| `COc1ccc2c(c1)C(=O)CC1(CCN(Cc3ccc(F)cc3)CC1)O2` | - | -242.6% | -27.06% | -0.6686% |
| `Cc1nc(C)n(C2CCCN(C(=O)c3csc(C(C)C)n3)C2)n1` (centres unmarked) | -1.174% | 7.625% | -7.91% | -2.023% |
| `CC(C)C(=O)NCc1ccnc(Oc2ccc(F)cc2)c1` | -9.788% | -4.351% | -16.72% | 2.315% |
| `O=C1CC[C@@H]2[C@@H](CCN2C(=O)c2ccsc2)N1Cc1ccncc1` | -4.198% | 14.68% | 5.234% | -4.691% |
| `Cc1noc(CS(=O)(=O)c2cc(F)ccc2F)n1` | 0.7389% | 2.946% | -0.4675% | 2.939% |
| `O=c1cc(-c2cc(O)cc(CCC3CCCCN3)c2)cc[nH]1` (centres unmarked) | -3.722% | 5.38% | -3.379% | 5.794% |
| `CC(C)c1nc(C2CCCN(C(=O)c3cccc4c3OCO4)C2)no1` (centres unmarked) | 0.7668% | 2.853% | -15.51% | 1.419% |
| `Cc1ccc(NCc2nc3n(n2)CCCCC3)c(C)c1` | -1.356% | 1.614% | -4.557% | 4.839% |
| `O=c1[nH]c(=O)n(CC(O)c2ccc(F)cc2F)cc1Cl` (centres unmarked) | -5.444% | -10.41% | -10.03% | 4.035% |
| `CN1[C@H]2CC[C@@H]1CN(C(=O)c1nnc3n1CCCC3)CC2` | 0.2469% | 4.921% | - | 0.7562% |
| `O=C1N(c2ccc(Cl)cc2)Cc2n[nH]c(=O)n21` | 3.205% | -9.29% | -8.801% | 2.492% |
| `CCc1ccc(S(=O)(=O)Nc2cc(C(=O)O)ccc2F)s1` | 6.193% | -14.64% | -8.759% | 1.131% |
| `N#Cc1ccccc1N1CCCN(C(=O)CCc2nccs2)CC1` | -4.799% | -26.68% | -17.37% | 5.629% |
| `CCOc1cc(CNC(=O)CNC(=O)CC2CCCCC2)ccn1` | -0.1971% | -3.188% | -14.88% | 3.816% |
| `COCC(C)NC(=O)N1CCN(S(C)(=O)=O)CC1` (centres unmarked) | 2.495% | -0.7626% | -26.15% | 5.438% |
| `CCOC(=O)c1cnn(-c2cc(Oc3ccccc3)ncn2)c1N` | -0.7897% | 9.481% | -18.47% | -2.508% |
| `CCc1nc(CC(=O)N2CCCC2Cn2cccn2)cs1` (centres unmarked) | 1.267% | -4.828% | -11.63% | 3.888% |
| `O=C(Nc1ccccc1)N1C[C@H]2C[C@H](C(=O)N3CCCC3)[C@@H](C1)O2` | - | -9.445% | -39.55% | -0.5458% |
| `Cc1nn(C)c2c(=O)n(CC(=O)NCc3ccccn3)ccc12` | 3.421% | -13.32% | -8.925% | 7.997% |
| `C=C(C)COc1ccccc1C(=O)N1CCC2(CC1)CN(C)CCN2C` | -0.6261% | 8.744% | -25.65% | 4.606% |
| `Cc1sc2nc(SC(C)c3nc(C(C)C)no3)nc(N)c2c1C` (centres unmarked) | -0.6173% | -6.656% | -12.13% | 3.309% |
| `Cc1ccc2c(c1)nc1n2[C@@H](CNC(=O)c2cncnc2)COC1` | -0.07588% | 0.3014% | -23.74% | 0.3531% |
| `COCC(=O)N1CC[C@@H](OCC2CC2)[C@@H]1Cc1cccnc1` | -1.394% | -4.471% | -28.66% | 6.557% |
| `CCCN1CC(C(=O)Nc2ccccn2)CC1=O` (centres unmarked) | -0.5418% | -13.1% | -0.6266% | 3.215% |
| `Cc1ccc(CNCc2cccc(NC(=O)CCN3CCOCC3)c2)s1` | -0.7157% | -6.308% | -10.71% | 2.303% |
| `COC(C)C(=O)NS(=O)(=O)c1cccc2cc(C)cnc12` (centres unmarked) | -1.784% | 0.9392% | - | 3.242% |
| `CSCC(C)(O)CNC(=O)c1cccc(Cl)c1Cl` (centres unmarked) | 0.6463% | -5.634% | - | 4.604% |
| `O=C(CCOCC(F)(F)F)N1CCCC1c1noc(C2CC2)n1` (centres unmarked) | -5.916% | 15.79% | -9.342% | -1.35% |
| `CCN1CCCN(S(=O)(=O)c2cnc3onc(C)c3c2)CC1` | -0.3079% | -4.163% | -17.24% | 4.255% |
| `Cc1cc(CN2CCc3nc(C(C)C)nc(O)c3CC2)c(C)s1` | -4.823% | -13.45% | -13.68% | 1.438% |
| `CCS(=O)(=O)NCc1nc(C)cc(N2CCCCC2)n1` | -5.273% | 3.646% | -8.35% | 4.249% |
| `CCC(C)C(=O)N(C)Cc1cc(F)ccc1N1CCC(OC)CC1` (centres unmarked) | 6.486% | -8.85% | -9.938% | -0.8614% |
| `COc1ccc(S(=O)(=O)N2CCOC[C@H](Oc3cnccn3)C2)cc1` | 2.365% | -6.028% | -24.27% | 4.334% |
| `CN1CC2(CCCN(c3nc(N)nc4c3CCCC4)C2)OC1=O` (centres unmarked) | -2.824% | -11.36% | - | 5.694% |
| `O=C(CCn1cnnn1)N1CCCC(CO)(CCCc2ccccc2)C1` (centres unmarked) | 0.08223% | -11.65% | 2.159% | 2.148% |

Once more, the final 2:

{"smiles": "CN1CC2(CCCN(c3nc(N)nc4c3CCCC4)C2)OC1=O", "stereo": "centres unmarked", "MtTrpRS": -2.824, "ClpP1P2": -11.36, "PfKRS1": 5.694}
{"smiles": "O=C(CCn1cnnn1)N1CCCC(CO)(CCCc2ccccc2)C1", "stereo": "centres unmarked", "MtTrpRS": 0.08223, "ClpP1P2": -11.65, "Pks13 thioesterase": 2.159, "PfKRS1": 2.148}